Test results taken from PubChem BioAssay AID2685 (National Center for Advancing Translational Sciences (NCATS), 2010).
This is one part of the list. Shown are side measurements of this screen, not its main read-out; they come without a call. Most of these compounds were active or inconclusive in the main read-out, so they are no random draw. Potencies come from curve fits of mixed quality, noted in brackets.

Test: qHTS Assay for Lipid Storage Modulators in Drosophila S3 Cells;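 on cell number change: cells counted by Cell Tracker Red CMTPX staining in the red channel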
Settings: BODIPY lipid droplet fluorescence, 18-24 h; for cell number change: measured here: cell count max response, cells fed with added oleic acid
Procedure, shortened: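 Laser-scanning cytometry quantifies lipid droplet accumulation (500–530 nm total intensity; droplet/cell object ratio) in oleic acid-fed (400 uM added) Drosophila S3 cells treated with a concentration series. 20 uM Triacsin C defined 100% inhibition.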

[1] = measured here: cell number channel AC50, cells fed with added oleic acid
[2] = measured here: lipid fluorescence (Fed channel) AC50, cells fed with added oleic acid

Question: For `CCOc1ccc(C(=O)CN2CCN(S(=O)(=O)c3ccc(Cl)cc3)CC2)cc1`, which cell number change is on record?
Answer: -12.1%

Question: And the AC50 [1]?
Answer: 2.59 µM [falling, single point]

Question: What about the AC50 [2] of the same compound?
Answer: 2.59 µM [falling, single point]

Question: For `Cc1ccc(-c2cc(C(=O)N3CCCc4ccccc43)c3ccccc3n2)cc1`, which cell number change is on record?
Answer: -1.47%

Question: And the AC50 [2]?
Answer: 3.26 µM [rising, partial curve]

Question: For `CNC(=O)C1CC(=O)N(c2ccc(C)cc2)C1` (configuration not stated), which cell number change is on record?
Answer: 0.952%

Question: And the AC50 [2]?
Answer: 29.1 µM [falling, partial curve]

Question: With `CC(C)CC(=O)Nc1nnc(SCC(=O)NC2CCCCC2)s1` as the compound, how does the cell number change read?
Answer: 1.73%

Question: Which cell number change does the source give for `CC(Oc1ccc(-c2nccc(-c3ccccn3)n2)cc1)C(=O)NN` (configuration not stated) here?
Answer: 151%

Question: And the AC50 [1]?
Answer: 16.4 µM [rising, partial curve]

Question: What about the AC50 [2] of the same compound?
Answer: 0.00517 µM [rising, full curve, poor fit]

Question: With `Cc1occc1C(=O)N=Nc1c(O)n(C)c2ccccc12` as the compound, how does the cell number change read?
Answer: 8.04%

Question: What about the AC50 [2] of the same compound?
Answer: 1.46 µM [rising, partial curve]

Question: With `Cc1ccccc1-c1cc(C(=O)NCC2CC2)nn1CC1CC(c2cccc([N+](=O)[O-])c2)=NO1` (configuration not stated) as the compound, how does the cell number change read?
Answer: 26.1%

Question: And the AC50 [1]?
Answer: 0.58 µM [falling, single point]

Question: Which results are given for `CCCc1nnc(NC(=O)c2cccnc2)s1`?
Answer: cell number change: 21.4%; AC50 [2]: 1.64 µM [falling, partial curve]

Question: For `CC1(C)CC(=O)c2c(O)cc(OCc3ccc(Br)cc3)cc2O1`, which cell number change is on record?
Answer: 116%

Question: What about the AC50 [1] of the same compound?
Answer: 6.51 µM [falling, single point]

Question: And the AC50 [2]?
Answer: 6.51 µM [falling, single point]

Question: What does the source list for `CC(C(=O)O)N1c2cccc3cccc(c23)S1(=O)=O` (configuration not stated)?
Answer: cell number change: 4.76%; AC50 [2]: 20.6 µM [rising, partial curve]

Question: What does the source list for `Cc1ccc(NC(=O)/C(C#N)=C/c2cccs2)c(C)c1`?
Answer: AC50 [1]: 0.92 µM [rising, partial curve]; AC50 [2]: 0.92 µM [rising, partial curve]

Question: Which cell number change does the source give for `COC(=O)c1c(S(N)(=O)=O)c2ccccc2n1C` here?
Answer: 4.56%

Question: What about the AC50 [2] of the same compound?
Answer: 3.26 µM [falling, single point]

Question: For `Cc1cccc(NC(=S)N(Cc2cccc(Br)c2)CC2CCC(C(=O)O)CC2)c1` (configuration not stated), which cell number change is on record?
Answer: 1.96%

Question: Which cell number change does the source give for `O=C(Nc1ccc(N2CCOCC2)cc1)c1ccc(COc2ccccc2)cc1` here?
Answer: 1.61%

Question: What about the AC50 [2] of the same compound?
Answer: 23.1 µM [falling, single point]

Question: With `COC(=O)c1c(NC(=O)c2cccnc2)sc(C)c1C` as the compound, how does the cell number change read?
Answer: 15.1%

Question: What about the AC50 [2] of the same compound?
Answer: 6.51 µM [falling, single point]

Question: For `CC(C)Oc1ccc(CNC(=O)CCC(=O)N2CC(C)Sc3ccccc32)cc1` (configuration not stated), which cell number change is on record?
Answer: 9.22%

Question: And the AC50 [2]?
Answer: 5.17 µM [falling, single point]

Question: With `CCOC(=O)C1CCN(C(=O)c2ccc(SC)cc2OC)CC1` as the compound, how does the cell number change read?
Answer: 13.6%

Question: Which cell number change does the source give for `Cc1cc2ncn(N)c2cc1C` here?
Answer: -3.87%

Question: And the AC50 [2]?
Answer: 5.17 µM [rising, single point]

Question: With `FC(F)(F)c1nnc(-c2ccccc2)nc1Sc1ccccc1` as the compound, how does the cell number change read?
Answer: -10.6%

Question: For `CCCCOc1ccc(C(=O)NNC(=S)NC(=O)CC)cc1`, which cell number change is on record?
Answer: -21.4%

Question: What about the AC50 [2] of the same compound?
Answer: 29.1 µM [falling, single point]

Question: For `Cn1c(=NC(=O)CSCC(=O)N2CCCC2)sc2ccccc21`, which AC50 [1] is on record?
Answer: 0.517 µM [rising, full curve, poor fit]

Question: For `CN(C1CCCC1)C1CCN(C(=S)Nc2cc(F)cc(F)c2)CC1`, which cell number change is on record?
Answer: 32.7%

Question: And the AC50 [1]?
Answer: 32.6 µM [rising, single point]

Question: What about the AC50 [2] of the same compound?
Answer: 29.1 µM [rising, single point]

Question: What does the source list for `CCCc1nc2ccc(NC(=O)c3ccco3)cc2c(=O)n1Cc1ccccc1Cl`?
Answer: cell number change: -29.2%; AC50 [2]: 16.4 µM [falling, single point]

Question: For `Cc1ccc(/C=N/NC(=O)c2csc(C)c2)o1`, which cell number change is on record?
Answer: 8.71%

Question: What about the AC50 [2] of the same compound?
Answer: 7.31 µM [rising, single point]

Question: Which cell number change does the source give for `CCCC[C@]12Cc3cc(OC)c(OC)cc3C(O1)C1=C(O2)C(=O)c2ccccc2C1=O` here?
Answer: -10.8%

Question: With `CCOc1ccc(C(=O)CCC(=O)NNC(=O)c2ccccc2O)cc1` as the compound, how does the cell number change read?
Answer: -11.8%

Question: And the AC50 [2]?
Answer: 2.31 µM [rising, single point]

Question: For `CNc1ccc(SC#N)cc1`, which cell number change is on record?
Answer: 20.7%

Question: What about the AC50 [2] of the same compound?
Answer: 0.251 µM [rising, partial curve]

Question: For `COC(=O)c1cc(Br)c(=O)n(-c2cc(C)on2)c1`, which cell number change is on record?
Answer: 5.26%

Question: With `COCCNC(=S)N/N=C(\C)c1cc2ccccc2o1` as the compound, how does the cell number change read?
Answer: 20.8%

Question: What about the AC50 [2] of the same compound?
Answer: 29.1 µM [rising, single point]

Question: Which AC50 [2] does the source give for `COCCN(C(=S)Nc1c(C)cccc1C)C(C)c1cccs1` (configuration not stated) here?
Answer: 6.51 µM [falling, single point]

Question: Which cell number change does the source give for `Cc1ccc(NC(=O)CN2C(=O)N/C(=C\c3cccn3-c3cccc(C(=O)O)c3)C2=O)cc1` here?
Answer: -16.7%

Question: Which cell number change does the source give for `CN(CC(=O)NCCCN1CCOCC1)S(=O)(=O)c1cc(Cl)ccc1Cl` here?
Answer: -11.3%

Question: For `Cc1ccc(-c2ccnc3c(Br)c(C)nn23)cc1`, which cell number change is on record?
Answer: -30.7%

Question: What about the AC50 [1] of the same compound?
Answer: 32.6 µM [falling, single point]

Question: What about the AC50 [2] of the same compound?
Answer: 32.6 µM [falling, single point]

Question: For `COc1nc(Nc2ccc3c(c2)OCO3)nc(OC)n1`, which cell number change is on record?
Answer: 2.03%

Question: And the AC50 [2]?
Answer: 6.51 µM [rising, single point]

Question: Which cell number change does the source give for `O=C(N/N=C/c1ccsc1)c1cc(-c2ccncc2)nc2ccccc12` here?
Answer: 20.6%

Question: For `CCN(CC)C(=O)CSc1ccc(C(F)(F)F)cc1[N+](=O)[O-]`, which cell number change is on record?
Answer: -57.1%

Question: And the AC50 [1]?
Answer: 20.6 µM [falling, single point]

Question: For `O=C1C2C(c3ccccc3)C=CC(c3ccccc3)C2C(=O)N1C1CCCCC1` (configuration not stated), which cell number change is on record?
Answer: 38%

Question: And the AC50 [1]?
Answer: 1.46 µM [rising, full curve, poor fit]

Question: Which results are given for `Cc1ccc(-n2c(CSc3nc(C)cc(C)n3)nnc2SCC(=O)NCc2ccco2)cc1`?
Answer: cell number change: -22.5%; AC50 [2]: 16.4 µM [falling, partial curve, poor fit]

Question: With `Cc1ccccc1NC(=O)CSc1nc2ccccc2c(=O)n1CC1CCCO1` (configuration not stated) as the compound, how does the AC50 [2] read?
Answer: 29.1 µM [rising, single point]

Question: For `COc1ccc(-c2nc(C#N)c(N3CCCCC3)o2)cc1`, which cell number change is on record?
Answer: 20.4%

Question: And the AC50 [2]?
Answer: 9.2 µM [rising, partial curve, poor fit]

Question: Which cell number change does the source give for `Cc1ccc(C)c(C(=O)CSc2n[nH]c(-c3ccncc3)n2)c1` here?
Answer: -11.4%

Question: And the AC50 [2]?
Answer: 2.91 µM [falling, single point]

Question: With `CC(=O)N1CCc2cc(S(=O)(=O)Nc3cccc(C(F)(F)F)c3)ccc21` as the compound, how does the cell number change read?
Answer: 4.9%

Question: And the AC50 [1]?
Answer: 6.51 µM [rising, single point]
